From publication PMC11151050
No constants are given. Whether binding was seen depends on the method and setting. Binding seen in cells or lysates may run through a third protein. Some results given as binding are weak or reduced against the parent protein; the word gives no strength.

Protein sequences, listed by entry. Tags and fused reporters are not part of them. Residues count along the entry.
UniProt P46934: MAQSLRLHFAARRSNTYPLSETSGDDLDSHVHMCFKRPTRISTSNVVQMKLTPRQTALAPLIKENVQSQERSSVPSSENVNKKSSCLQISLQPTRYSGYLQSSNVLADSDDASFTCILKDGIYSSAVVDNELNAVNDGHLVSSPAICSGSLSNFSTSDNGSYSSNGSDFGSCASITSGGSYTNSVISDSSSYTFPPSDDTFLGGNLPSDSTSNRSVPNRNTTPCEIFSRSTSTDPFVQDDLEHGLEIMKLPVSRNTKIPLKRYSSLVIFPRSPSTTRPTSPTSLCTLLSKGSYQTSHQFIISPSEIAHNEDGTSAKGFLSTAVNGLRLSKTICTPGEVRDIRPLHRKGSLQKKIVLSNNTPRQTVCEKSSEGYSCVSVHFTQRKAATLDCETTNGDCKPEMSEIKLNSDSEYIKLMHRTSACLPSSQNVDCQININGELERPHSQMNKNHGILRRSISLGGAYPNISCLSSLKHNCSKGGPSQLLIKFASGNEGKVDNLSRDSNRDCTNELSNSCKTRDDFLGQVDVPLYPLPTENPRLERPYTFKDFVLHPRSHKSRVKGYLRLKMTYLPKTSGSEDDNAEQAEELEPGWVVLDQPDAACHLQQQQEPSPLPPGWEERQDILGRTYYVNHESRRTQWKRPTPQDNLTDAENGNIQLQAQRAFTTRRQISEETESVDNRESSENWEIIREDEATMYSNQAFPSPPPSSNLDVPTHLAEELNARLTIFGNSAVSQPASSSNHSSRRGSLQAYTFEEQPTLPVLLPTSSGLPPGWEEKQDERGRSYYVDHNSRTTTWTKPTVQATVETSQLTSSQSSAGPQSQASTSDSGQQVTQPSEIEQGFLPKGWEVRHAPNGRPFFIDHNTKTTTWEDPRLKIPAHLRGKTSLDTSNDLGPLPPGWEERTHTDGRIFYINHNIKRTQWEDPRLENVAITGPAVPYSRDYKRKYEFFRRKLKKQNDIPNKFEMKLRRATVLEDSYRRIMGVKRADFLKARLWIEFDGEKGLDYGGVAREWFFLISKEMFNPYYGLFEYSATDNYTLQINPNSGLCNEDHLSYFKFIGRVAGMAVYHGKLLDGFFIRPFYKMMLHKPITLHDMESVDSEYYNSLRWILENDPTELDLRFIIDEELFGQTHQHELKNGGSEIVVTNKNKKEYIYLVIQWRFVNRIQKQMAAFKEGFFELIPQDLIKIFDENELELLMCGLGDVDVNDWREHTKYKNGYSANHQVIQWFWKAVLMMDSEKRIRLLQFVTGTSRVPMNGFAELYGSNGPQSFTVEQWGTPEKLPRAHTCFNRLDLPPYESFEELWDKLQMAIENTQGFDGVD
UniProt P07996, residues 19-1170: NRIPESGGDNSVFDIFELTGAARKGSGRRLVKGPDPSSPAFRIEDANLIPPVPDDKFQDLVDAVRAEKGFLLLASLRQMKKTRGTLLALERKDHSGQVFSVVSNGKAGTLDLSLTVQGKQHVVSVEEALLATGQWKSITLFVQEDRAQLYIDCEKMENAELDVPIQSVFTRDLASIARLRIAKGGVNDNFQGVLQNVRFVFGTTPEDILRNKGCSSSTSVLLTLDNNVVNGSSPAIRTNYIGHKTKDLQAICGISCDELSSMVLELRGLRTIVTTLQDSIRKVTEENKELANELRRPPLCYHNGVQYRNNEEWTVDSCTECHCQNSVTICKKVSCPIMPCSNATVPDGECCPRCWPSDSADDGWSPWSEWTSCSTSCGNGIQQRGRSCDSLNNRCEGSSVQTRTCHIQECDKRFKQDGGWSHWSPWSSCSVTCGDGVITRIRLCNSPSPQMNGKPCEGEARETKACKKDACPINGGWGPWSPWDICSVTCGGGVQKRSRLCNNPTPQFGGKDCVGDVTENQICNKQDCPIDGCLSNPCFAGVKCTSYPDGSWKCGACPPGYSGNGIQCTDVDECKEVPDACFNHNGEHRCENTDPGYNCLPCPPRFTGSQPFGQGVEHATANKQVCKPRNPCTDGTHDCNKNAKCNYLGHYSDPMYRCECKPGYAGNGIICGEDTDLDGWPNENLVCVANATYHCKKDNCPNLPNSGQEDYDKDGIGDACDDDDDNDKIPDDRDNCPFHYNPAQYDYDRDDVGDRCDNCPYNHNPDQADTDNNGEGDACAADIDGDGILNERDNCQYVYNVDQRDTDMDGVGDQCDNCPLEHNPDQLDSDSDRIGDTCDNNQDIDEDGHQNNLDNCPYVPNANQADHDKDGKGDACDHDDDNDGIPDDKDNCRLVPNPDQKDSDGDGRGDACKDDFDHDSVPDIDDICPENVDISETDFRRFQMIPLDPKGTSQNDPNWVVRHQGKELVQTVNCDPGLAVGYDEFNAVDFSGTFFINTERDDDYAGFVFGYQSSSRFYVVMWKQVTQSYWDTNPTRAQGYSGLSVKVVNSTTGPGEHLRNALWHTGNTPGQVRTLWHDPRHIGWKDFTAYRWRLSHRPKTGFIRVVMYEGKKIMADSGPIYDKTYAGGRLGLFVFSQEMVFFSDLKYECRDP

Target: T1, transforming growth factor β-activated kinase 1 (TAK1) (human (endogenous in HTR8/SVneo)) (UniProt O43318)
T1 sequence: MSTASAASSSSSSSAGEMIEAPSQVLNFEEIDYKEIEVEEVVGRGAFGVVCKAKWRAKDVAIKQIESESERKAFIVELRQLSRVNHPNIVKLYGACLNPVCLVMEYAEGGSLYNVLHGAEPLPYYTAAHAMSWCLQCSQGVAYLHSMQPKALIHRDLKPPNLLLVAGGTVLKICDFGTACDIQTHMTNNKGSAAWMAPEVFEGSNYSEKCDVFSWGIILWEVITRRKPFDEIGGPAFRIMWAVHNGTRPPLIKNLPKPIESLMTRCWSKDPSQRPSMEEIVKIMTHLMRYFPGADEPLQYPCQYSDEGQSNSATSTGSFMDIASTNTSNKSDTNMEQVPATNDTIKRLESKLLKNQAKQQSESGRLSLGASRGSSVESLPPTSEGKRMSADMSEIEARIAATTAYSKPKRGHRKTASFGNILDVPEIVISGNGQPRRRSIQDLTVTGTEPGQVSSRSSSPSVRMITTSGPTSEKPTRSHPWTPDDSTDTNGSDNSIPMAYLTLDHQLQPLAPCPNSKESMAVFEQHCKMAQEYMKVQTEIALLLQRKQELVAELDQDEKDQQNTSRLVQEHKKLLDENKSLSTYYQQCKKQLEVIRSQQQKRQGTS
Test: co-IP; endogenous proteins in HTR8/SVneo cell lysate (IP lysis buffer); supernatant incubated with the indicated antibodies at 4 °C overnight, protein A/G magnetic beads 1 h at room temperature (Pierce Classic Magnetic IP/Co-IP Kit), western blot

binding | Substance
binds | neuronal precursor cell-expressed developmentally down-regulated 4 (NEDD4) (from UniProt P46934 1-1319) (enzyme)
binds | thrombospondin-1 (THBS1) (from UniProt P07996 19-1170)
